Publication PMC5245867
No constants are given. Whether binding was seen depends on the method and setting. In cells and extracts the contact can be indirect. A yes stands for co-enrichment or nearness to the bait. Other partners may have been found.

Sequences of proteins named here, by UniProt entry; tags and fusion partners are left off.
UniProt O35085: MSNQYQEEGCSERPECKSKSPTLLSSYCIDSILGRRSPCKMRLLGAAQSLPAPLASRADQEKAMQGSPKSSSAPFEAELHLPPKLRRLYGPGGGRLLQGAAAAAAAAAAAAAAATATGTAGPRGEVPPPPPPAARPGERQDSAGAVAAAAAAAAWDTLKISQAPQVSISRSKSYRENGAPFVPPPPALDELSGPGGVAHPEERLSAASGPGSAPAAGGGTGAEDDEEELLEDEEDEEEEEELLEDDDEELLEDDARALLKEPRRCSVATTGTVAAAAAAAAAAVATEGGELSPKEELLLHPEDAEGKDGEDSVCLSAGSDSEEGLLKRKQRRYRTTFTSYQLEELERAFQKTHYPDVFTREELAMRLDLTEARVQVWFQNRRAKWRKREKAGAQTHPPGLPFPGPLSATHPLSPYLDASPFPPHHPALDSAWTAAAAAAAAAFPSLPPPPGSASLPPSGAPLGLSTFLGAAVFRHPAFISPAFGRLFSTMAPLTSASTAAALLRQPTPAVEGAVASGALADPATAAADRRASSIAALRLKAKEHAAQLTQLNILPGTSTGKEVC
UniProt Q91WK0: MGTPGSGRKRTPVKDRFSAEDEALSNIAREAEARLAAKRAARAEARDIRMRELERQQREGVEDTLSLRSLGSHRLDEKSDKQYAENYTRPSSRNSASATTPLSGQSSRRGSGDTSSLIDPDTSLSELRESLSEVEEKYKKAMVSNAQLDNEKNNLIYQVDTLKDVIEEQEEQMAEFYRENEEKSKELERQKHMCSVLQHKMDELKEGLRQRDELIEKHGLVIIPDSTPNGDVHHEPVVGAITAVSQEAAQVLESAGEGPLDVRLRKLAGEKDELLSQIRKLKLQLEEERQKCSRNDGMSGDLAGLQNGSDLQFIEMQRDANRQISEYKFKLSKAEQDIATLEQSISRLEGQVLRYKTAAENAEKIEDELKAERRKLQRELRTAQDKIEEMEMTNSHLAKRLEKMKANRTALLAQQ
UniProt Q02248: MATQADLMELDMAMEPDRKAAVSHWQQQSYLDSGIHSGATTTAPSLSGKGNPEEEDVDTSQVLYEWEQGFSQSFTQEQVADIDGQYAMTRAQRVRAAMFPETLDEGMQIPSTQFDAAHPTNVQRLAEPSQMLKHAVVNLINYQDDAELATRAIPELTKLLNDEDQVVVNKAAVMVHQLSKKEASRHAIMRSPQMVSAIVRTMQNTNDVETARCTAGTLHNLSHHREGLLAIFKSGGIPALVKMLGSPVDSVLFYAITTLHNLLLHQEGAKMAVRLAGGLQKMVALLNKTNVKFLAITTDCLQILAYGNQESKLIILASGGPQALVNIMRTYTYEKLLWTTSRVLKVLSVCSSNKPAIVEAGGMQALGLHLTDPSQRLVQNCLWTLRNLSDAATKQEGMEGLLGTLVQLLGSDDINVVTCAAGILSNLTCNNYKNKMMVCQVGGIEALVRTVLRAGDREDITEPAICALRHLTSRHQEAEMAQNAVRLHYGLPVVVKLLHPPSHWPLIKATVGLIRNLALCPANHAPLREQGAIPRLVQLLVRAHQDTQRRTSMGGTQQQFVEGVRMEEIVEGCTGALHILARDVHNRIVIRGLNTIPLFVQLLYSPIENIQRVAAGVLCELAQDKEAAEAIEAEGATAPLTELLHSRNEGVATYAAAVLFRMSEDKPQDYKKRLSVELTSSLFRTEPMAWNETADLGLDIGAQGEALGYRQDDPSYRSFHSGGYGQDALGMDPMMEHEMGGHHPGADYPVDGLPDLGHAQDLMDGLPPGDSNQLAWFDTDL

Target: Aristaless related homeobox (ARX) protein (mouse (endogenous in E14.5 forebrain)) (UniProt O35085)
Test: affinity purification with mass spectrometry; E14.5 mouse forebrain lysate (buffer B: 25 mM Tris-Cl pH 7.4, 140 mM NaCl, 1% Triton X-100), anti-ARX antibody on Dynabeads, 2 hr at 4°C, acid elution, MS-MS; IgG control

Row | binding | Molecule
1 | binds | leucine rich repeat flightless interacting protein 2 (LRRFIP2) (from UniProt Q91WK0 1-415)
2 | binds | β-catenin (CTNNB1) (from UniProt Q02248 1-781)
3 | binds | B-cell CLL/lymphoma 9 (BCL9) (protein, UniProt Q9D219 1-1425) MHPSNPKVRSSPSGNTQSSPKSKQEVMVRPPTVMSPSGNPQLDSKFSNQGKPGGSASQSQPSPCDSKSGGHTPKALPGPGGSMGLKNGAGNGAKGKGKRERSISADSFDQRDPGTPNDDSDIKECNSADHIKSQESQHTPHSMTPSTATAPRSSTPSHGQTPAPEPISAQKTPAKVVYVFSTEMANKAAEAVLKGQVETIVSFHIQNISNSKSERSTAPLNTQIPTLRNDPKPLPQQPPAPANQDQNSSQNARLQPTPPIQAPAPKPTAAPRPLDRESPGVENKLIPPVGSPGSSTPLPPDGTGPNSTPNNRAVTPVSQGSNSSSADPKAPPPPPVSGGEPPTLGENPDGLSQEQLEHRERSLQTLRDIQRMLFPDEKEFTAGQTGGPQQNTGVLDGPQKKPDGPIQAMMSQSQSLGKGPGPRTDVGAPFGPQGHRDVPFSPDEMVPPNMSSQSGPIGPDHLDHMTPEQIAWLKLQQEFYEEKRRKQEQVVVQQCSLQDMMVHQHGPRGVVRGPPPPYQMAPGEGWAPGAEPFPDGINISHSLPPRGMAPHPNMPGSQMRLPGFAGMINSEMEGPNVPNPASRPGLSGVSWPDDVPKIPDGRNFPPGQGVFSGPGRGERFPNPQGLSEEMFQQQLAEKQLALPPGMSMEGIRPGMEMNRMIPGSQRHMEPGSNPIFPRIPVEGPLSPSRGDFPKGMPPQIGPGRELEFGMVPGGMKGEVNLNVNMGSSSQMIPQKMREAGAGPEEMMKLRPGSSEMLPAQQKMVPLPFGEHPQQEYGVGPRPFLPMSQGPGSNSGLRNLREPIGPDQRTNSRLSHMPPLPLNPSSNPTSLSTAPPVQRGLGRKPLDISVAGSQVHSPGINPLKSPTMHQVQSPMLGSPSGNLKSPQTPSQLAGMLAGPAAAASIKSPPVLGSAAASPVHLKSPSLPAPSPGWTSSPKPPLQSPGIPPNHKAPLTMASPAMLGSVESGGPPPPTASQPASVNIPGSLPSSTPYPMPPEPTLSQNPLSIMMSRMSKFAMPSSTPLYHDAIKTVASSDDDSPPARSPNLPSMNSMPGMGINTQNPRISGPNPVVPMPTLSPMGMTQPLSHSNQMPSPNAMGPSIPPHGVPMGPGLMSHNPIMGHGSQEPPMVPQGRMGFPQGFPPVQSPPQQVPFPHNGPTGGQGNFPGGIGFPGEGPLGRPSNLPQSSADPALCKPGGPGAPDSFTVLGNSMPSVFTDPDLQEVIRPGATGIPEFDLSRIIPSEKPSQTLQYFPRGEVPGRKQPQGPGPGFSHMQGMMSDQAPRMGLALPGMGGPGPVGTPDIPLGTSPSMPGHNPMRPPAFLQQGMMGPHHRMMSPAQSTVPGPATLMTNPAAAVGMIPGKDRGPAGLYTHPGPVGSPGMMMSMQGMMGPQQNIMIPPQMRPRGMAADVGMGGFSQGPGNPGNMMF
